Data as given in PubChem BioAssay AID652272 (Drosophila RNAi Screening Center, 2013)
The deposit covers about 21,000 reagents; below is a random part of those with a known target gene and a result. Over the whole deposit, 503 (2.4%) were called active. 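Raw plate light values, not normalised; calls rest on replicate z-scores that were not deposited; hits include reporter decreases as well as increases.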 A plus sign joins genes that one reagent is predicted to hit. Reagent sequences are not shown. Not given: the amount of reagent, the time to read-out.

- Screen: 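Genome-wide knock-down search for components of Hedgehog signalling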 (primary screen)
- Cell system: Drosophila clone 8 (Cl8) cells
- Reagents: long dsRNA against Drosophila genes
- Read-out: 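Plate reader light from a firefly reporter under a ptc promoter fragment that responds to Hedgehog, with Renilla light as transfection reference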
- Reading the numbers: firefly Hh reporter signal: higher = more ptc reporter light; Renilla reference signal: higher = more Renilla control light
- Rule for the call: 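Hit when the z-score averaged over two replicates is under -2 or over +3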
- Calls: active = hit: reporter lowered or raised; inactive = not a hit

gene knocked down	dsRNA	firefly Hh reporter signal, replicate 1	firefly Hh reporter signal, replicate 2	firefly Hh reporter signal, replicate 3	Renilla reference signal, replicate 1	Renilla reference signal, replicate 2	outcome
CG13258	DRSC02244	94071	81783		2400	6837	inactive
RhoGAP71E (Rho GTPase activating protein at 71E)	DRSC10232	89522	56688		3686	1994	inactive
RhoGAP71E (Rho GTPase activating protein at 71E)	DRSC10837	63264			3292	2759	active
RhoGAP71E (Rho GTPase activating protein at 71E)	DRSC10838	1.29e5			8553	3930	inactive
Past1 (Putative Achaete Scute Target 1)	DRSC16784	73824	1.14e5		2534	2865	inactive
st (scarlet)	DRSC11399	74790	36231		3117	1628	inactive
CG14294	DRSC14774	7.40e5	1.50e5		34476	4313	inactive
CG14760	DRSC06495	1.01e5	40648		2586	3648	inactive
Top2 (Topoisomerase 2)	DRSC03459	95563	43608		2390	3893	inactive
Cyp4ac3 (Cytochrome P450 4ac3)	DRSC03304	1.58e5	1.59e5		5961	6352	inactive
Sardh (Sarcosine dehydrogenase)	DRSC06981	1.38e5	94114		6284	3920	inactive
CG15916	DRSC19740	80812	1.59e5		2547	6610	inactive
CG8925	DRSC16455	95201	1.16e5		1603	3369	inactive
CG8925	DRSC16456	80073	1.41e5		2240	3862	inactive
CG8925	DRSC16457	60785	81915		1456	2080	inactive
ranshi	DRSC16564	69513	92162		2459	5104	inactive
RpL9 (Ribosomal protein L9)	DRSC03418	39847	17714		2359	3601	active
CG15580	DRSC12266	76448	1.21e5		2994	3448	inactive
b (black)	DRSC03487	1.08e5	73924		3114	6044	inactive
CG13458	DRSC10005	94859	73896		3597	3121	inactive
Secp43 (tRNA Selenocysteine associated protein)	DRSC00454	1.02e5	53796		2817	7317	inactive
CG3744	DRSC15511	5.50e5	1.09e5		30461	3488	inactive
CG34247	DRSC09933	1.73e5			7191	4811	inactive
Cap-D3 + tomb	DRSC02347	1.02e5	49568		1778	4738	inactive

The list goes on; the last 9 above are carried over.
gene knocked down	dsRNA	firefly Hh reporter signal, replicate 1	firefly Hh reporter signal, replicate 2	firefly Hh reporter signal, replicate 3	Renilla reference signal, replicate 1	Renilla reference signal, replicate 2	outcome
ranshi	DRSC16564	69513	92162		2459	5104	inactive
RpL9 (Ribosomal protein L9)	DRSC03418	39847	17714		2359	3601	active
CG15580	DRSC12266	76448	1.21e5		2994	3448	inactive
b (black)	DRSC03487	1.08e5	73924		3114	6044	inactive
CG13458	DRSC10005	94859	73896		3597	3121	inactive
Secp43 (tRNA Selenocysteine associated protein)	DRSC00454	1.02e5	53796		2817	7317	inactive
CG3744	DRSC15511	5.50e5	1.09e5		30461	3488	inactive
CG34247	DRSC09933	1.73e5			7191	4811	inactive
Cap-D3 + tomb	DRSC02347	1.02e5	49568		1778	4738	inactive
p47	DRSC06046	1.24e5	93905		5620	2816	inactive
stwl (stonewall)	DRSC11400	55372	37703		2518	1720	inactive
Mtr4 (Mtr4 helicase)	DRSC03560	58039	31525		3770	2240	active
CG31371	DRSC15079	83080	78082		2759	2518	inactive
CG11699	DRSC19419	98048	2.19e5		3398	8098	inactive
mthl1 (methuselah-like 1)	DRSC19905	53236	1.98e5		2513	8578	inactive
CG31776	DRSC00716	1.19e5	91922		3104	6481	inactive
CG7772	DRSC20056	1.61e5	1.46e5		3984	3740	inactive
CG14147	DRSC10149	34289	31324	59041	3744	4480	inactive
Snrk (SNF related kinase)	DRSC07192	99779	62564		4567	2849	inactive
CG15458	DRSC20529	58778	2.18e5		1424	9539	inactive
CG2200	DRSC19840	77744	1.56e5		1833	6242	inactive
Crk (Crk oncogene)	DRSC17163	2.03e5	88016		4283	3497	inactive
CG13024	DRSC09904	1.43e5			1430	3650	inactive
roh (reduction of Rh1)	DRSC04003	1.38e5	2.20e5		3592	11057	inactive
CG1523	DRSC15033	96320	84595		1433	1952	inactive
CG10063	DRSC09688	88832	63035		8649	5780	inactive
RpL34a (Ribosomal protein L34a)	DRSC15964	5.08e5	1.41e5		27347	5075	inactive
se (sepia)	DRSC10713	51165	49146		5371	3066	inactive
CG18420	DRSC01954	1.31e5	55510		3290	5763	inactive
CG11413 + CG4622	DRSC04109	1.00e5	1.11e5		1850	7808	inactive
CG8728	DRSC07251	56185	55009		2507	2164	inactive
CG15650	DRSC04241	85754	38441		2164	3468	inactive
Rpt2 (Regulatory particle triple-A ATPase 2)	DRSC16799	43849	17814		3216	1073	active
CG13678	DRSC10036	6.34e5	1.14e5		4212	4212	inactive
yellow-e3	DRSC15170	72384	86968		2160	1760	inactive
spo (spook)	DRSC11127	32587	60387		3753	4034	inactive
CG43092	DRSC13572	44891	1.68e5		9371	3451	inactive
O-fut1 (O-fucosyltransferase 1)	DRSC06138	1.44e5	95184		5552	3904	inactive
Pa1 (PTIP associated 1)	DRSC19422	1.16e5	3.14e5		3874	11699	inactive
CG4712	DRSC06882	1.47e5	60388		3745	4845	inactive
Dred (Dctn1-related)	DRSC11057	1.26e5	1.08e5		4445	3280	inactive
Dred (Dctn1-related)	DRSC11059	4.19e5	76476		4048	4048	inactive
CG3494	DRSC04375	82520	81168		2048	5985	inactive
Hinfp (Histone H4 transcription factor)	DRSC18484	65536	1.32e5		2648	5369	inactive
GstD9 (Glutathione S transferase D9)	DRSC14185	58178	1.03e5		1808	2640	inactive
CG5897	DRSC10555	40412	45845	38609	5506	3184	inactive
RpS4 (Ribosomal protein S4)	DRSC11272	32232	9133	24583	2848	2890	active
CG12490	DRSC04123	74498	63264		1644	6141	inactive
HP6 (Heterochromatin protein 6)	DRSC00471	66698	25267		2105	3477	inactive
Neurl4 (Neuralized E3 ubiquitin protein ligase 4)	DRSC10638	1.06e5	44605		3932	1841	inactive
Su(z)3 (retired record)	DRSC07558	20496	22357		612	1948	inactive
CG1999	DRSC18199	80355	70266		1376	1856	inactive
trv (trivet)	DRSC13846	49307	2.75e5		14089	5525	inactive
trv (trivet)	DRSC14559	1.28e5	72528		4513	2301	inactive
trv (trivet)	DRSC14560	1.44e5	1.13e5		4804	3235	inactive
trv (trivet)	DRSC14561	2.07e5	1.67e5		6728	4154	inactive
CG14657	DRSC12219	52972	95904		1686	3280	inactive
CG14657	DRSC12243	99875	95623		3676	3729	inactive
